Data from article PMC6572771.
Results are given in words; binding and its absence hold for the method and conditions named. In cells and extracts the contact can be indirect. Some entries that bind do so weakly or less than the wild type. Sequences can lack the tags named with a protein.

Target: T1, Sbh1-HA (S. cerevisiae) (UniProt P52870)
T1 sequence: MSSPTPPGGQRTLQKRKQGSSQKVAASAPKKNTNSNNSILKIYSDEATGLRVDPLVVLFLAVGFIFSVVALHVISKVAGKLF
Test: co-IP; native co-IP from microsomes of WT and opi3Δ cells solubilised in 1% digitonin (50 mM Tris pH 7.5, 150 mM NaCl, 5 mM EDTA); anti-HA antibodies and Protein G beads overnight at 4 °C; blot with anti-Sec61 and anti-HA

B1: Sec61 (endogenous) (protein, UniProt P32915 1-480)
chain: MSSNRVLDLFKPFESFLPEVIAPERKVPYNQKLIWTGVSLLIFLILGQIPLYGIVSSETSDPLYWLRAMLASNRGTLLELGVSPIITSSMIFQFLQGTQLLQIRPESKQDRELFQIAQKVCAIILILGQALVVVMTGNYGAPSDLGLPICLLLIFQLMFASLIVMLLDELLSKGYGLGSGISLFTATNIAEQIFWRAFAPTTVNSGRGKEFEGAVIAFFHLLAVRKDKKRALVEAFYRTNLPNMFQVLMTVAIFLFVLYLQGFRYELPIRSTKVRGQIGIYPIKLFYTSNTPIMLQSALTSNIFLISQILFQKYPTNPLIRLIGVWGIRPGTQGPQMALSGLAYYIQPLMSLSEALLDPIKTIVYITFVLGSCAVFSKTWIEISGTSPRDIAKQFKDQGMVINGKRETSIYRELKKIIPTAAAFGGATIGALSVGSDLLGTLGSGASILMATTTIYGYYEAAAKEGGFTKNLVPGFSDLM
binding: binds
